Measured values from patent US20250002587A1 (University of California, published 2025).
Results are given in words; binding and its absence hold for the method and conditions named. Some binding calls cover weakened binding; strength is not graded here.

By UniProt entry, the sequences of proteins in these tests, tags left out. Where a name states a change or a piece, a line headed by the entry shows the natural chain unless it says otherwise.
UniProt P43406: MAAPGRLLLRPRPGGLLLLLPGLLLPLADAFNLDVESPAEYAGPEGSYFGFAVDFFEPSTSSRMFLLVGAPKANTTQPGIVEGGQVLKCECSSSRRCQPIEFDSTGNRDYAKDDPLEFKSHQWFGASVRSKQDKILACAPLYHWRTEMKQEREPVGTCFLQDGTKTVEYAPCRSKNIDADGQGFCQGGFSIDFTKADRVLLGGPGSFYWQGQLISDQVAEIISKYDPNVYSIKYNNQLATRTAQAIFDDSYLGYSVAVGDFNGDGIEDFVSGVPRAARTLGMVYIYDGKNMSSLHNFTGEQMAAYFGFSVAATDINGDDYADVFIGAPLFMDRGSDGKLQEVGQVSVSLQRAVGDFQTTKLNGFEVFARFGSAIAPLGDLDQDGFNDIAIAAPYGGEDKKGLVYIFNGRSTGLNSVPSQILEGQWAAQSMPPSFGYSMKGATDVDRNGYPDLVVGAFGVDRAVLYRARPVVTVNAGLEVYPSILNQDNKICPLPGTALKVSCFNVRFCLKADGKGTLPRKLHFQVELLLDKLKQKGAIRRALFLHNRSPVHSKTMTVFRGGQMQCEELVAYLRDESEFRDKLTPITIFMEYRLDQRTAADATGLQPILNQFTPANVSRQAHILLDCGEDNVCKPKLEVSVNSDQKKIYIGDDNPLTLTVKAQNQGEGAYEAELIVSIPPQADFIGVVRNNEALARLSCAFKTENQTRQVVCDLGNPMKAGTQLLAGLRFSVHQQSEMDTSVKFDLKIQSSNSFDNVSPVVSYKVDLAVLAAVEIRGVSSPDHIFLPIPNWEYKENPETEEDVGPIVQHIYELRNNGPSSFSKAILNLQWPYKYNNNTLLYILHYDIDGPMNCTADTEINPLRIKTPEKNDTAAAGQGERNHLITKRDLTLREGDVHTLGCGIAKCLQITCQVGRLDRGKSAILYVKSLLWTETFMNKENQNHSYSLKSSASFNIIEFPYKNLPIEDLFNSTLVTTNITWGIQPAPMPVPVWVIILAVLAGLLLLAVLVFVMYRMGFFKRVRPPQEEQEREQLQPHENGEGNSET
UniProt Q0VBD0: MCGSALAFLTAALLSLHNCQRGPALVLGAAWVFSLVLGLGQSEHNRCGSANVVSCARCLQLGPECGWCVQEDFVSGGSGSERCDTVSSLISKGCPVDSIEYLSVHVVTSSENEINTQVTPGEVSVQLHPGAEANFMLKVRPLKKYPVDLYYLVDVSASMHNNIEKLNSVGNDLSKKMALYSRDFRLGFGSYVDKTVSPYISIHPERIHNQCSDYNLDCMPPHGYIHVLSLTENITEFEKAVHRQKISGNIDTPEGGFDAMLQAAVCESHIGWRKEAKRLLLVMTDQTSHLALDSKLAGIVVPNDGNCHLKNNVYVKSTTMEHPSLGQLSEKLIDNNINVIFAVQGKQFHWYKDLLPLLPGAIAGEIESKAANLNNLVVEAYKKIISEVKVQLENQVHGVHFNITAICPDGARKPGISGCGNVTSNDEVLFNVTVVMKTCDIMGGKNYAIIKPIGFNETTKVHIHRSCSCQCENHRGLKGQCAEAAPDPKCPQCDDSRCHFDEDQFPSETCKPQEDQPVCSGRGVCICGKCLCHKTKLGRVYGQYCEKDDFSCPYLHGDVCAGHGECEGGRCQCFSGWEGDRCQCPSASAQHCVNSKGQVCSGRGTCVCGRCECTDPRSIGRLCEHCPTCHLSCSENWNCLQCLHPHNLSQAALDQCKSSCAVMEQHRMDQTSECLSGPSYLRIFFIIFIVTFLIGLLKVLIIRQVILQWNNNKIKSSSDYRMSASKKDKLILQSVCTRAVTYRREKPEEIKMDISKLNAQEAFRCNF

Columns and labels:
recombinant mouse αvβ8 [1] = molecular target: T1, recombinant mouse αvβ8 (mouse, UniProt P43406 31-988; Q0VBD0 43-681, limits assumed); assay: bio-layer interferometry, IgG on anti-human Fab-CH1 tips, 200 nM αvβ8 in solution
T1 construct: Soluble recombinant heterodimer used as analyte at 200 nM in BLI

recombinant mouse αvβ8 [2] = molecular target: T1, recombinant mouse αvβ8; assay: bio-layer interferometry
recombinant mouse αvβ8 [3] = molecular target: T1, recombinant mouse αvβ8; assay: bio-layer interferometry (legend of FIGS. 5A and 5B)
[4] = molecular target: T2, surface-expressed mouse αvβ8 on murine astrocytes (mouse) (UniProt P43406+Q0VBD0); assay: FACS on murine astrocytes, fluorescent secondary antibody
[5] = molecular target: T2, surface-expressed mouse αvβ8 on murine astrocytes (mouse); assay: FACS on murine astrocytes (legend of FIG. 7)
[6] = molecular target: T2, surface-expressed mouse αvβ8 on murine astrocytes (mouse); assay: FACS on murine astrocytes

Row | Binder | binding (recombinant mouse αvβ8 [1]) | binding (recombinant mouse αvβ8 [2]) | binding (recombinant mouse αvβ8 [3]) | binding [4] | binding [5] | binding [6]
1 | ADWA16-chimera (antibody, V domains shown, It was captured on anti-human Fab-CH1 tips and detected with anti-human secondary, so it has human constant regions; also called chimeric ADWA-16; chimeric version of the parent ADWA16 murine IgG) VH: QVQLQQSGAELAKPGASMKMSCKASGYTFSSYWIYWVKQRPGQGLEWIGYINPTTGYTEYNQKFRDKATLTADKSSNTAYMQLSSLTSEDSAVYYCATEGGNWEDYWGQGTTLTVSS VL: DIQMTQTTSSLSASLGDRVTISCRASQDISNYLNWYQQKPDGTVKLLIYYTSRLYSGVPSRFSGSGSGTDYSLTISNLEPKDIATYYCQQFSELPRTFGGGTKLEIK | binds |  |  |  |  | 
2 | ADWA16-3 (antibody, V domains shown) VH: EVQLVESGGGLVQPGGSLRLSCAVSGYIFSSYWVYWVRQAPGKGLEWVGYINPTTGYTEYADSVKGRFTISRDNSKNTLYLQMNSLRAEDTAVYYCATEGGNWEDYWGQGTLVTVSS VL: DIQMTQSPSSLSASVGDRVTITCRASQDISNYINWYQQKPGKAPKLLIYYTSRLYGGVPSRFSGSGSGTDFTLTISSLQPEDFATYYCQQFSELPRTFGQGTKVEIK | binds | binds | binds |  |  | 
3 | ADWA16-1 (antibody, V domains shown) VH: EVQLVESGGGLVQPGGSLRLSCAVSGYIFSSYWVYWVRQAPGKGLEWVGYINPTTGYTEYADSVKGRFTISRDNSKNTLYLQMNSLRAEDTAVYYCATEGGNWEDYWGQGTLVTVSS VL: DIQMTQSPSSLSASVGDRVTITCRASQDISNYINWYQQKPGKAPKLLIYYTSRLYSGVPSRFSGSGSGTDFTLTISSLQPEDFATYYCQQFSELPRTFGQGTKVEIK | binds | binds |  |  |  | 
4 | ADWA16-2 (antibody, V domains shown) VH: EVQLVESGGGLVQPGGSLRLSCAVSGYIFSSYWVYWVRQAPGKGLEWVGYINPTTGYTEYADSVKGRFTISRDNSKNTLYLQMNSLRAEDTAVYYCATEGGNWEDYWGQGTLVTVSS VL: DIQMTQSPSSLSASVGDRVTITCRASKDISNYLNWYQQKPGKAPKLLIYYTSRLYSGVPSRFSGSGSGTDFTLTISSLQPEDFATYYCQQFSELPRTFGQGTKVEIK | binds | binds |  |  |  | 
5 | ADWA16-3.2 (antibody, V domains shown, also called humanized derivative of ADWA16) VH: EVQLVESGGGLVQPGGSLRLSCAVSGYIFSSYWVYWVRQAPGKGLEWVGYISPTTGYTVYADSVKGRFTISRDNSKNTLYLQMNSLRAEDTAVYYCATEGGNWEDYWGQGTLVTVSS VL: DIQMTQSPSSLSASVGDRVTITCRASQDISNYINWYQQKPGKAPKLLIYYTSRLYGGVPSRFSGSGSGTDFTLTISSLQPEDFATYYCQQFSELPRTFGQGTKVEIK | binds | binds | binds | binds | binds | binds
6 | ADWA16-4 (antibody, V domains shown) VH: EVQLVESGGGLVQPGGSLRLSCAVSGYIFSSYWVYWVRQAPGKGLEWVGYINPTTGYTEYADSVKGRFTISRDNSKNTLYLQMNSLRAEDTAVYYCATEGGNWEDYWGQGTLVTVSS VL: DIQMTQSPSSLSASVGDRVTITCRASKDISNYINWYQQKPGKAPKLLIYYTSRLYGGVPSRFSGSGSGTDFTLTISSLQPEDFATYYCQQFSELPRTFGQGTKVEIK | binds | binds |  |  |  | 
7 | ADWA11 (antibody, V domains shown, IgG; also called ADWA1l) VH: EVQLQQSGAELVRPGAFVKLSCKASGFNIKDYYMNWVLQRPEQGLEWIGWIDPDNGNTIYDPKFQGKASITADTSSNTAYLQLSSLTSEDTAVYYCARRLLMDYWGQGTSVTVSS VL: DIVMTQAAPSVPVTPGESVSISCRSTKSLLHFNGNTYLFWFLQRPGQSPQRLIYYMSNLASGVPDRFSGRGSGTDFTLRISRVEAEDVGVYYCMQSLEYPFTFGTGTKLEIK |  |  |  | binds |  | 
